Reference: the supplement of paper PMC6078165
Values are relative to the signal before dosing, not to a vehicle control; the signal also falls without drug.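 Fibroblast labels denote human fibroblasts, mainly primary ones from uterus (C12385, HUF), lung (H6013), bone (Hs27A), adrenal (HADF) and skin (WS1), plus mammary HMF and breast cancer-associated Hs343T. Cancer cells are basal-like or mesenchymal-like triple-negative breast cancer lines. A hit is a response shift exceeding 3x replicate standard deviation. The tissue of the other fibroblasts is not given here.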

Test system: MDAMB468
Test: relative JC-1 red fluorescence (viability) vs pre-drug, coculture with fibroblast (fraction); higher = more viable cancer cells
Procedure: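 JC-1 labelled TNBC cells cocultured 1:1 (1,500 cells each) with CellTrace Violet stained primary or stromal fibroblasts in 384-well plates in FluoroBrite medium, treated with one of 42 anticancer drugs at 0.1, 1, 10 or 100 uM. JC-1 red fluorescence (mitochondrial integrity in cancer cells only) was read by plate reader every 8 h for 72 h. Values are normalised to each well's pre-drug value. The stock of one drug was tenfold lower, so its dose labels may be too high.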

C#Cc1cccc(Nc2ncnc3cc(OCCOC)c(OCCOC)cc23)c1 [Erlotinib]
relative JC-1 red fluorescence
Settings	8 h	16 h	24 h	32 h	40 h	48 h	56 h	64 h	72 h
0.1 µM, coculture fibroblast: C12385	0.899	0.828	0.772	0.6998	0.653	0.633	0.601	0.576	0.5649
0.1 µM, coculture fibroblast: H6013	0.8838	0.837	0.786	0.783	0.749	0.76	0.73	0.709	0.664
0.1 µM, coculture fibroblast: H6019	0.821	0.7833	0.7363	0.66	0.614	0.589	0.545	0.508	0.482
0.1 µM, coculture fibroblast: H6076	0.91	0.923	0.938	0.926	0.855	0.846	0.797	0.782	0.82
0.1 µM, coculture fibroblast: H6231	0.8513	0.973	0.882	0.835	0.78	0.756	0.702	0.668	0.6459
0.1 µM, coculture fibroblast: HADF	0.896	0.843	0.782	0.767	0.712	0.699	0.662	0.651	0.623
0.1 µM, coculture fibroblast: HCFa	0.878	0.833	0.778	0.753	0.689	0.678	0.627	0.593	0.549
0.1 µM, coculture fibroblast: HCPF	0.883	0.966	0.902	0.862	0.801	0.765	0.711	0.699	0.682
0.1 µM, coculture fibroblast: HHSteC	0.91305	0.859	0.8146	0.784	0.738	0.729	0.669	0.641	0.588
0.1 µM, coculture fibroblast: HMF	0.8287	0.91	0.887	0.847	0.788	0.765	0.716	0.696	0.679
0.1 µM, coculture fibroblast: HPFa	0.919	0.849	0.827	0.789	0.749	0.744	0.668	0.637	0.557
0.1 µM, coculture fibroblast: HUF	0.908	0.845	0.8149	0.764	0.711	0.692	0.658	0.633	0.609
0.1 µM, coculture fibroblast: Hs5	0.7681	0.964	0.911	0.8807	0.811	0.7863	0.755	0.72	0.746
0.1 µM, coculture fibroblast: Hs27A	0.882	0.838	0.786	0.787	0.713	0.701	0.66	0.628	0.593
0.1 µM, coculture fibroblast: Hs343T	0.889	0.831	0.893	0.845	0.785	0.759	0.707	0.688	0.665
0.1 µM, coculture fibroblast: WS1	0.892	0.795	0.747	0.691	0.64	0.607	0.588	0.5642	0.561
1 µM, coculture fibroblast: C12385	0.885	0.845	0.8161	0.7427	0.697	0.68	0.641	0.617	0.598
1 µM, coculture fibroblast: H6013	0.865	0.868	0.827	0.827	0.829	0.841	0.826	0.815	0.767
1 µM, coculture fibroblast: H6019	0.822	0.8129	0.7867	0.737	0.704	0.692	0.646	0.609	0.584
1 µM, coculture fibroblast: H6076	0.887	0.8876	0.863	0.874	0.808	0.8194	0.8	0.793	0.829
1 µM, coculture fibroblast: H6231	0.84	0.862	0.828	0.837	0.773	0.768	0.725	0.704	0.714
1 µM, coculture fibroblast: HADF	0.901	0.87941	0.82312	0.819	0.761	0.749	0.7168	0.7087	0.6803
1 µM, coculture fibroblast: HCFa	0.8434	0.8424	0.80276	0.778	0.733	0.73	0.689	0.658	0.618
1 µM, coculture fibroblast: HCPF	0.8487	0.93	0.863	0.863	0.8	0.775	0.73	0.723	0.7154
1 µM, coculture fibroblast: HHSteC	0.8878	0.873	0.843	0.813	0.795	0.791	0.743	0.714	0.655
1 µM, coculture fibroblast: HMF	0.834	0.907	0.87	0.847	0.794	0.779	0.75	0.743	0.73
1 µM, coculture fibroblast: HPFa	0.9439	0.8935	0.8586	0.817	0.783	0.777	0.7055	0.6765	0.595
1 µM, coculture fibroblast: HUF	0.8983	0.834	0.806	0.74	0.693	0.673	0.633	0.618	0.601
1 µM, coculture fibroblast: Hs5	0.963	0.94	0.893	0.862	0.808	0.78	0.764	0.7326	0.7482
1 µM, coculture fibroblast: Hs27A	0.853	0.8625	0.791	0.793	0.74	0.733	0.691	0.672	0.6341
1 µM, coculture fibroblast: Hs343T	0.841	0.905	0.8511	0.826	0.768	0.752	0.717	0.703	0.693
1 µM, coculture fibroblast: WS1	0.872	0.831	0.794	0.7358	0.681	0.658	0.631	0.605	0.591
